{
  "sequences": {"note": "By UniProt entry, the sequences of proteins in these tests, tags left out. Residues count along the entry.", "UniProt P14780, 107-707 limits assumed, species assumed": "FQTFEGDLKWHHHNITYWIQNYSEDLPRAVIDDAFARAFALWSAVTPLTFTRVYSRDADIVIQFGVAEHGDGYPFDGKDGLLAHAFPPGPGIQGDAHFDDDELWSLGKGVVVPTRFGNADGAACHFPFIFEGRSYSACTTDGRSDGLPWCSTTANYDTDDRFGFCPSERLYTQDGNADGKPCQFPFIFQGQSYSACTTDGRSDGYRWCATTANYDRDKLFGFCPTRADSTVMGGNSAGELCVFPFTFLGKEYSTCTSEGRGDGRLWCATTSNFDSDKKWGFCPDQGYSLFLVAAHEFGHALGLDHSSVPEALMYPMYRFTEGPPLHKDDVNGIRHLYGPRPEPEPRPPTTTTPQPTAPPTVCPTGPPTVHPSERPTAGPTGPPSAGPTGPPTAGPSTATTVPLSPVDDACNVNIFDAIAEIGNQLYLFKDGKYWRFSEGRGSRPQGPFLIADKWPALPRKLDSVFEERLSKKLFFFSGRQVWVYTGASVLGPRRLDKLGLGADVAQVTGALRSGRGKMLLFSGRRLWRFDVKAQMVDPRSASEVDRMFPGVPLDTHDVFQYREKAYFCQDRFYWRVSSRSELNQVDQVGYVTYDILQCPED"},
  "source": "patent US20160296628A1",
  "about": "“NANOPARTICLE DELIVERY SYSTEMS FOR CYTOLYTIC PEPTIDE PRODRUGS” (Washington University, priority 2015, published 2016)",
  "key": {"2F2B endothelial cells": {"system": "2F2B endothelial cells", "assay": "XTT cytotoxicity assay, 2F2B endothelial cells", "assay_type": "cell-based", "conditions": "2F2B cells; conjugate 200 μM cleaved with 20 nM MMP-9, 3 hours at 37° C.", "experimental": "(§1) The conjugate was compared to melittin and to melittin coupled only to linker in order to determine toxicity to endothelial cells and macrophages, as well as hemolysis. For assessment of cytotoxicity, 2F2B endothelial cells (CRL-2168; American Type Culture Collection, Manassas, Va.) or RAW 264.7 macrophages (TIB-71; American Type Culture Collection, Manassas, Va.) were plated in a 96-well plate at a concentration of 15,000 cells/well and allowed to attach overnight. The peptide of interest was then added and incubated with the cells for 3 hours at 37° C. Following this incubation, the agent of interest was removed, cells were washed with phosphate-buffered saline, and cell viability was determined by XTT assay (Biotium, Hayward, Calif.). This assay measures the ability of cellular oxidoreductases to reduce the XTT reagent, resulting in a colored product. Briefly, cells were incubated with the activated XTT reagent for 3 hours at 37° C. with shaking at 200 rpm. The absorbance of each well at 450 nm was then measured using a Bio-Rad Model 550 plate reader (Bio-Rad Laboratories, Hercules, Calif.) with reference wavelength 630 nm.\n(§2) To assess the impact of proteolytic cleavage on conjugate cytotoxicity and hemolytic activity, we repeated these experiments following cleavage of the conjugate by matrix metalloproteinase-9 (MMP-9). […]"}, "RAW 264.7 macrophages": {"system": "RAW 264.7 macrophages", "assay": "XTT cytotoxicity assay, RAW 264.7 macrophages", "assay_type": "cell-based", "conditions": "RAW 264.7 cells; conjugate 200 μM cleaved with 20 nM MMP-9, 3 hours at 37° C.", "experimental": "as §1, §2"}, "B16F10 melanoma cells": {"system": "B16F10 melanoma cells", "assay": "XTT cytotoxicity assay, B16F10 melanoma cells", "assay_type": "cell-based"}, "MMP-9": {"molecular_target": "T1, MMP-9 (Homo sapiens, UniProt P14780)", "T1 construct": "purchased R&D Systems", "assay": "Cleavage by recombinant MMP-9, HPLC and mass spectrometry", "assay_type": "biochemical", "conditions": "recombinant MMP-9, HPLC, FIG. 3A-B"}, "[1]": {"assay": "Peptide loading onto perfluorocarbon nanoparticles", "assay_type": "physicochemical", "conditions": "1 mM peptide in phosphate-buffered saline, 4° C., 1 hour", "experimental": "Conjugate-loaded nanoparticles were formulated by mixing known amounts of conjugate to non-targeted perfluorocarbon nanoparticles prepared in Example 1A and compared to melittin loading. Both melittin and the conjugate were produced by solid-phase peptide synthesis (melittin: GenScript, Piscataway, N.J.; conjugate: American Peptide Company, Sunnyvale, Calif.). Perfluorocarbon nanoparticles were incubated with 1 mM melittin or conjugate in phosphate-buffered saline at 4° C. for 1 hour. Nanoparticles were then isolated by centrifugation at 5,000 rpm for 15 minutes. The supernatant was removed and nanoparticles were washed three times with phosphate-buffered saline to remove free peptide."}},
  "note": "At least one peptide structure holds a part that was inferred or is arguable (an end, a ring closure or a residue).",
  "data": [
    {"compound": "CC[C@H](C)[C@H](NC(=O)CNC(=O)[C@H](CCC(N)=O)NC(=O)CNC(=O)[C@H](C)NC(=O)[C@@H](NC(=O)CNC(=O)[C@H](CCC(N)=O)NC(=O)[C@@H]1CCCN1C(=O)CNC(=O)[C@H](C)NC(=O)[C@H](CCC(=O)O)NC(=O)[C@@H]1CCCN1C(=O)[C@H](CC(=O)O)NC(=O)[C@H](C)NC(=O)[C@H](CCC(=O)O)NC(=O)[C@H](C)NC(=O)[C@H](CC(=O)O)NC(=O)[C@H](C)NC(=O)[C@H](CCC(=O)O)NC(=O)[C@H](C)NC(=O)[C@H](CCC(=O)O)NC(=O)[C@@H]1CCCN1C(=O)[C@H](CCC(=O)O)NC(=O)[C@@H]1CCCN1C(=O)[C@H](C)NC(=O)[C@@H]1CCCN1C(=O)[C@H](CCC(=O)O)NC(=O)[C@@H]1CCCN1)[C@@H](C)CC)C(=O)NCC(=O)N[C@@H](C)C(=O)N[C@H](C(=O)N[C@@H](CC(C)C)C(=O)N[C@@H](CCCCN)C(=O)N[C@H](C(=O)N[C@@H](CC(C)C)C(=O)N[C@H](C(=O)N[C@H](C(=O)NCC(=O)N[C@@H](CC(C)C)C(=O)N1CCC[C@H]1C(=O)N[C@@H](C)C(=O)N[C@@H](CC(C)C)C(=O)N[C@H](C(=O)N[C@@H](CO)C(=O)N[C@@H](Cc1c[nH]c2ccccc12)C(=O)N[C@H](C(=O)N[C@@H](CCCCN)C(=O)N[C@@H](CCCNC(=N)N)C(=O)N[C@@H](CCCCN)C(=O)N[C@@H](CCCNC(=N)N)C(=O)N[C@@H](CCC(N)=O)C(=O)N[C@@H](CCC(N)=O)C(N)=O)[C@@H](C)CC)[C@@H](C)CC)[C@@H](C)O)[C@@H](C)O)C(C)C)C(C)C", "note": "[Pro-P2]", "values": [
      {"measurement": "toxicity after cleavage by MMP-9", "setting": "2F2B endothelial cells", "value": "restored its toxicity"},
      {"measurement": "toxicity after cleavage by MMP-9", "setting": "RAW 264.7 macrophages", "value": "restored its toxicity"},
      {"measurement": "toxicity to cells", "setting": "B16F10 melanoma cells; B16F10, absence of MMP-9", "value": "Neither the free conjugate nor conjugate-loaded nanoparticles were toxic to cells"},
      {"measurement": "toxicity after cleavage by MMP-9", "setting": "B16F10 melanoma cells; B16F10 cells, conjugate 200 μM cleaved with 20 nM MMP-9, 3 hours at 37° C.", "value": "restored its toxicity"},
      {"measurement": "cleavage by MMP-9 to the expected product (peak 1)", "setting": "MMP-9", "value": "successfully cleaved to yield the expected product"},
      {"measurement": "loading, peptides per nanoparticle", "setting": "[1]", "value": "approximately 16,000 peptides per nanoparticle"}
    ]}
  ]
}
